# This is one part of the list.
# B1: PX14343I-pdi-501-30-501 (Parabacteroides distasonis) (protein)
# chain: SDQYSTETFWKTKEHASAGIMGCYNALKLWRSLHTMEFDMLTANAMPYNEANGTQAIGKGEHLSTTALIGSLWKNCYVGIGRTNTFIANVGGVDMDESEKAKMVGEAKFLRAFYYLSLVDKFGGVPLIIDAPNADEQAELPRNSKEEVVNQIVKDLEEAAAVLPDTYASSDLGRATKGAALALKARTLLYNSRWAEAAQAAKQVMESGVYQLFNDYRHFFSEDNKYNCEVIFDIEAKLPEYPTDYDQNIWRLNRPAPLKELVDTYLCVDGKTIEESPLYDPTRPYENRDPRLLKSIVCIGYPYLGKTITKEDVATTGFGVKKYTSYEDDVTIPLVERSAFNFILIRYAEVLLTYAEAQNEASGPDQSVYDAINQLRRRPDINMPEVPKGLTKDQMREVIRRERRIELTFEGLYYSDILRWKTAEKENNGMMHNYEGIEVVKRSFNPKRDYLWPIPYNQTVLNPNLEQNPNWD
# Columns and labels:
# Experiment in all cases: glycan array binding signal (z-score within array); higher = stronger binding
# Conditions in all cases: glycan notation: IUPAC condensed, linker removed
# [1] = biological target: Fuc(a1-2)Gal6S(b1-3)GlcNAc6S
# In short: (§1)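 From the Consortium for Functional Glycomics database, 3228 arrays were curated, keeping only those whose protein sequence was available. Binding is given as a within-array Z-score averaged across arrays sharing a protein sequence and across linkers. Negative Z-scores can be read as non-binding.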
# Fuc(a1-2)Gal6S(b1-4)Glc = biological target: Fuc(a1-2)Gal6S(b1-4)Glc
# In short: as §1
# [2] = biological target: Fuc(a1-2)Gal6S(b1-4)Glc6S
# In short: as §1
# Fuc(a1-2)[Gal(a1-3)]Gal = biological target: Fuc(a1-2)[Gal(a1-3)]Gal
# In short: as §1
# [3] = biological target: Fuc(a1-2)[Gal(a1-3)]Gal(b1-3)GalNAc
# In short: as §1
# [4] = biological target: Fuc(a1-2)[Gal(a1-3)]Gal(b1-3)GalNAc(b1-3)Gal(a1-4)Gal(b1-4)Glc
# In short: as §1
# [5] = biological target: Fuc(a1-2)[Gal(a1-3)]Gal(b1-3)GlcNAc
# In short: as §1
# [6] = biological target: Fuc(a1-2)[Gal(a1-3)]Gal(b1-3)GlcNAc(b1-2)Man(a1-3)[Fuc(a1-2)[Gal(a1-3)]Gal(b1-3)GlcNAc(b1-2)Man(a1-6)]Man(b1-4)GlcNAc(b1-4)GlcNAc
# In short: as §1
# [7] = biological target: Fuc(a1-2)[Gal(a1-3)]Gal(b1-3)GlcNAc(b1-2)Man(a1-3)[Fuc(a1-2)[Gal(a1-3)]Gal(b1-3)GlcNAc(b1-2)Man(a1-6)]Man(b1-4)GlcNAc(b1-4)[Fuc(a1-6)]GlcNAc
# In short: as §1
# [8] = biological target: Fuc(a1-2)[Gal(a1-3)]Gal(b1-3)GlcNAc(b1-3)GalNAc
# In short: as §1
# [9] = biological target: Fuc(a1-2)[Gal(a1-3)]Gal(b1-3)GlcNAc(b1-6)GalNAc
# In short: as §1
# [10] = biological target: Fuc(a1-2)[Gal(a1-3)]Gal(b1-4)Glc
# In short: as §1
# [11] = biological target: Fuc(a1-2)[Gal(a1-3)]Gal(b1-4)GlcNAc
# In short: as §1
# [12] = biological target: Fuc(a1-2)[Gal(a1-3)]Gal(b1-4)GlcNAc(b1-2)Man
# In short: as §1
# [13] = biological target: Fuc(a1-2)[Gal(a1-3)]Gal(b1-4)GlcNAc(b1-2)Man(a1-3)[Fuc(a1-2)[Gal(a1-3)]Gal(b1-4)GlcNAc(b1-2)Man(a1-6)]Man(b1-4)GlcNAc(b1-4)GlcNAc
# In short: as §1
# [14] = biological target: Fuc(a1-2)[Gal(a1-3)]Gal(b1-4)GlcNAc(b1-2)Man(a1-3)[Fuc(a1-2)[Gal(a1-3)]Gal(b1-4)GlcNAc(b1-2)Man(a1-6)]Man(b1-4)GlcNAc(b1-4)[Fuc(a1-6)]GlcNAc
# In short: as §1
# [15] = biological target: Fuc(a1-2)[Gal(a1-3)]Gal(b1-4)GlcNAc(b1-3)GalNAc
# In short: as §1
# [16] = biological target: Fuc(a1-2)[Gal(a1-3)]Gal(b1-4)GlcNAc(b1-3)[Fuc(a1-2)[Gal(a1-3)]Gal(b1-4)GlcNAc(b1-6)]GalNAc
# In short: as §1
# [17] = biological target: Fuc(a1-2)[Gal(a1-3)]Gal(b1-4)GlcNAc(b1-6)GalNAc
# In short: as §1
# [18] = biological target: Fuc(a1-2)[Gal(a1-3)]Gal(b1-4)[Fuc(a1-3)]Glc
# In short: as §1
# [19] = biological target: Fuc(a1-2)[Gal(a1-3)]Gal(b1-4)[Fuc(a1-3)]GlcNAc
# In short: as §1
# [20] = biological target: Fuc(a1-2)[Gal(a1-3)]Gal(b1-4)[Fuc(a1-3)]GlcNAc(b1-3)GalNAc
# In short: as §1
# [21] = biological target: Fuc(a1-2)[Gal(a1-4)]Gal(b1-4)GlcNAc
# In short: as §1
# [22] = biological target: Fuc(a1-2)[GalNAc(a1-3)]Gal
# In short: as §1
# [23] = biological target: Fuc(a1-2)[GalNAc(a1-3)]Gal(b1-3)GalNAc(a1-3)[Fuc(a1-2)]Gal(b1-4)GlcNAc
# In short: as §1
# [24] = biological target: Fuc(a1-2)[GalNAc(a1-3)]Gal(b1-3)GalNAc(b1-3)Gal(a1-4)Gal(b1-4)Glc
# In short: as §1
# [25] = biological target: Fuc(a1-2)[GalNAc(a1-3)]Gal(b1-3)GlcNAc
# In short: as §1
# [26] = biological target: Fuc(a1-2)[GalNAc(a1-3)]Gal(b1-3)GlcNAc(b1-2)Man(a1-3)[Fuc(a1-2)[GalNAc(a1-3)]Gal(b1-3)GlcNAc(b1-2)Man(a1-6)]Man(b1-4)GlcNAc(b1-4)GlcNAc
# In short: as §1
# [27] = biological target: Fuc(a1-2)[GalNAc(a1-3)]Gal(b1-3)GlcNAc(b1-2)Man(a1-3)[Fuc(a1-2)[GalNAc(a1-3)]Gal(b1-3)GlcNAc(b1-2)Man(a1-6)]Man(b1-4)GlcNAc(b1-4)[Fuc(a1-6)]GlcNAc
# In short: as §1
# [28] = biological target: Fuc(a1-2)[GalNAc(a1-3)]Gal(b1-3)GlcNAc(b1-3)GalNAc
# In short: as §1
# [29] = biological target: Fuc(a1-2)[GalNAc(a1-3)]Gal(b1-3)GlcNAc(b1-6)GalNAc
# In short: as §1
# [30] = biological target: Fuc(a1-2)[GalNAc(a1-3)]Gal(b1-4)Glc
# In short: as §1
# [31] = biological target: Fuc(a1-2)[GalNAc(a1-3)]Gal(b1-4)GlcNAc
# In short: as §1
# [32] = biological target: Fuc(a1-2)[GalNAc(a1-3)]Gal(b1-4)GlcNAc(b1-2)Man
# In short: as §1
# [33] = biological target: Fuc(a1-2)[GalNAc(a1-3)]Gal(b1-4)GlcNAc(b1-2)Man(a1-3)[Fuc(a1-2)[GalNAc(a1-3)]Gal(b1-4)GlcNAc(b1-2)Man(a1-6)]Man(b1-4)GlcNAc(b1-4)GlcNAc
# In short: as §1
# [34] = biological target: Fuc(a1-2)[GalNAc(a1-3)]Gal(b1-4)GlcNAc(b1-2)Man(a1-3)[Fuc(a1-2)[GalNAc(a1-3)]Gal(b1-4)GlcNAc(b1-2)Man(a1-6)]Man(b1-4)GlcNAc(b1-4)[Fuc(a1-6)]GlcNAc
# In short: as §1
# [35] = biological target: Fuc(a1-2)[GalNAc(a1-3)]Gal(b1-4)GlcNAc(b1-3)Gal(b1-4)GlcNAc
# In short: as §1
# [36] = biological target: Fuc(a1-2)[GalNAc(a1-3)]Gal(b1-4)GlcNAc(b1-3)Gal(b1-4)GlcNAc(b1-3)Gal(b1-4)GlcNAc
# In short: as §1
# [37] = biological target: Fuc(a1-2)[GalNAc(a1-3)]Gal(b1-4)GlcNAc(b1-3)GalNAc
# In short: as §1
# [38] = biological target: Fuc(a1-2)[GalNAc(a1-3)]Gal(b1-4)GlcNAc(b1-3)[Fuc(a1-2)[GalNAc(a1-3)]Gal(b1-4)GlcNAc(b1-6)]GalNAc
# In short: as §1
# [39] = biological target: Fuc(a1-2)[GalNAc(a1-3)]Gal(b1-4)GlcNAc(b1-6)GalNAc
# In short: as §1
# [40] = biological target: Fuc(a1-2)[GalNAc(a1-3)]Gal(b1-4)[Fuc(a1-3)]GlcNAc
# In short: as §1
# [41] = biological target: Fuc(a1-2)[GalNAc(a1-3)]Gal(b1-4)[Fuc(a1-3)]GlcNAc(b1-3)GalNAc
# In short: as §1
# [42] = biological target: Fuc(a1-2)[GalNAc(a1-4)]Gal(b1-4)GlcNAc
# In short: as §1
# [43] = biological target: Fuc(a1-2)[GalNAc(b1-3)]Gal
# In short: as §1
binder,measurement,setting,value
B1,glycan array binding signal (z-score),[1],-0.446
same,glycan array binding signal (z-score),Fuc(a1-2)Gal6S(b1-4)Glc,0.082
same,glycan array binding signal (z-score),[2],-0.391
same,glycan array binding signal (z-score),Fuc(a1-2)[Gal(a1-3)]Gal,-0.376
same,glycan array binding signal (z-score),[3],0.267
same,glycan array binding signal (z-score),[4],0.578
same,glycan array binding signal (z-score),[5],-0.077
same,glycan array binding signal (z-score),[6],0.697
same,glycan array binding signal (z-score),[7],-0.563
same,glycan array binding signal (z-score),[8],0.385
same,glycan array binding signal (z-score),[9],-0.008
same,glycan array binding signal (z-score),[10],-0.16
same,glycan array binding signal (z-score),[11],0.188
same,glycan array binding signal (z-score),[12],-0.7
same,glycan array binding signal (z-score),[13],0.272
same,glycan array binding signal (z-score),[14],0.866
same,glycan array binding signal (z-score),[15],0.362
same,glycan array binding signal (z-score),[16],-0.551
same,glycan array binding signal (z-score),[17],-0.088
same,glycan array binding signal (z-score),[18],-0.322
same,glycan array binding signal (z-score),[19],0.018
same,glycan array binding signal (z-score),[20],-0.205
same,glycan array binding signal (z-score),[21],-0.398
same,glycan array binding signal (z-score),[22],-0.237
same,glycan array binding signal (z-score),[23],-0.036
same,glycan array binding signal (z-score),[24],-0.085
same,glycan array binding signal (z-score),[25],0.35
same,glycan array binding signal (z-score),[26],-0.277
same,glycan array binding signal (z-score),[27],-0.505
same,glycan array binding signal (z-score),[28],0.161
same,glycan array binding signal (z-score),[29],0.502
same,glycan array binding signal (z-score),[30],0.669
same,glycan array binding signal (z-score),[31],-0.707
same,glycan array binding signal (z-score),[32],-0.767
same,glycan array binding signal (z-score),[33],0.835
same,glycan array binding signal (z-score),[34],-0.589
same,glycan array binding signal (z-score),[35],-0.547
same,glycan array binding signal (z-score),[36],0.571
same,glycan array binding signal (z-score),[37],-0.313
same,glycan array binding signal (z-score),[38],0.856
same,glycan array binding signal (z-score),[39],-0.434
same,glycan array binding signal (z-score),[40],-0.393
same,glycan array binding signal (z-score),[41],0.679
same,glycan array binding signal (z-score),[42],-0.33
same,glycan array binding signal (z-score),[43],-0.899

# A different layout for some results above.
binder	measurement	setting	value
B1	glycan array binding signal (z-score)	[21]	-0.398
same	glycan array binding signal (z-score)	[22]	-0.237
